{
  "source": "patent US20110105494A1",
  "about": "“HETEROARYL SUBSTITUTED ARYLINDENOPYRIMIDINES AND THEIR USE AS HIGHLY SELECTIVE ADENOSINE A2A RECEPTOR ANTAGONISTS” (priority 2009, published 2011)",
  "molecular_target": "T1, human adenosine A2A receptor (Homo sapiens, UniProt P29274)",
  "T1 construct": "expressed in transfected cells; host or cells: CHO-K1 cells with cAMP inducible beta-galactosidase reporter gene",
  "assay": "Adenosine A2A Receptor Functional Assay (A2AGAL2)",
  "format": "cell-based",
  "details": "selectivity ratio of A1Gal2 value to A2AGal2 value",
  "procedure": "Adenosine A2A Receptor Functional Assay (A2AGAL2)\nTo initiate the functional assay, cryopreserved CHO—K1 cells overexpressing the human adenosine A2A receptor and containing a cAMP inducible beta-galactosidase reporter gene were thawed, centrifuged, DMSO containing media removed, and then seeded with fresh culture media into clear 384-well tissue culture treated plates (BD #353961) at a concentration of 10K cells/well. Prior to assay, these plates were cultured for two days at 37° C., 5% CO2, 90% Rh. On the day of the functional assay, culture media was removed and replaced with 45 μL assay medium (Hams/F-12 Modified (Mediatech #10-080CV) supplemented w/0.1% BSA). Test compounds were diluted and 11 point curves created at a 1000× concentration in 100% DMSO. Immediately after addition of assay media to the cell plates, 50 nL of the appropriate test compound antagonist or agonist control curves were added to cell plates using a Cartesian Hummingbird. Compound curves were allowed to incubate at room temperature on cell plates for approximately 15 minutes before addition of a 15 nM NECA (Sigma E2387) agonist challenge (5 μL volume). […] Plates were counted at 405 nm on a SpectraMax Microplate Reader (Molecular Devices). Data was analyzed in Microsoft Excel and IC/EC50 curves were fit using a standardized macro.",
  "note": "At least one compound was matched to its structure with a doubt left.",
  "data": [
    {"smiles": "Cc1nc(-c2ccccc2)sc1-c1cccc2c1-c1nc(N)nc(-c3ccc(F)cc3)c1C2=O", "note": "[Example 5, 2-Amino-4-(4-fluoro-phenyl)-9-(4-methyl-2-phenyl-thiazol-5-yl)-indeno[1,2-d]pyrimidin-5-one]", "values": [
      {"measurement": "A1/A2A", "value": 54.1176}
    ]}
  ]
}
